Measurements: PubChem BioAssay AID1508600 (Functional Genomics Laboratory (NCATS/FGL), 2020)
Among all 53,000 sequences or so, about 3,700 (7%) were called active.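 Rule for the calls: active = gene knockdowns whose robust z-score for IL-1 alpha signal is at least 2 or at most -2, so actives lie on both sides; inactive = the rest.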 This is one part of the list.

Experiment: Components of the Cytosolic LPS Sensing Pathway: Gene Identification via Genome-wide siRNA Screen;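 note: robust z of the log signal after scaling to non-targeting control siRNA wells of the plate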
Conditions: RAW264.7 macrophages, IL-1a HTRF, actives lie on both sides, screened at 100 nM (by protocol), cells primed 5 h with Pam3CSK4 first
Outline: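 Using IL-1a HTRF as read-out, the screen measured release from RAW264.7 cells after 48h siRNA knockdown (100 nM), 5 h Pam3CSK4 priming and 24 h cytosolic LipidA. Values were expressed relative to negative-control wells as robust z-scores.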

Sequence | z-score
GGGACAAUGGCAAAAUAAATT against Serpinb11 | inactive: -1.28
GGUGAUUCACAUACUUUAUTT against Vps54 | inactive: 0.612
GGUGUCCUAUGUGAAGGAGTT against Trmu | inactive: -0.0884
GCCUGAUGGGCACUUUGAATT against Socs6 | inactive: 0.0945
GCAAAUUAGGUUGUGAAUGTT against Gab1 | inactive: -0.924
GUCUUAAAAUUCCUGCUCCTT against Mrgprg | inactive: -0.549
GGUGGAGCAGAUGAAGAACTT against Hspbp1 | inactive: 0.447
GCAGCUCACUUUGGAUGACTT against Irf4 | inactive: 1.17
GCAUGUUUUCCACAGCGAUTT against Vmn1r41 | inactive: -0.132
GGAGUGAAUGAAUGAAUGATT against Vsx1 | inactive: -0.605
GGCCACCAGAAUUGUUCACTT against Gm5136 | inactive: 0.981
CCUGAAUCUAGCCAUUCAATT against Olfr1080 | inactive: -0.546
GGCUGAGUUUGGUAAGAGATT against Scly | inactive: 0.124
GGAAUCGGCAGUCUCAUUCTT against Nfkbiz | inactive: 0.935
CCUAUCCAGAUGUCAUUAATT against Hoxa11 | inactive: 0.849
GGCCUAUGCGGAGGAGUUATT against Hsdl1 | inactive: 0.268
CCUCAACAAAUCAUCCUAATT against Rgs18 | inactive: -1.08
GGAUGCUUGGCUCAAUUACTT against Olfr992 | inactive: 0.891
GGUCUGUCGGAAAAUCUGGTT against Agfg2 | inactive: 0.779
GCAUAGAGGACUACAACGATT against Optc | inactive: 0.329
GGCUAACUCCUUAAAACCUTT against Aldh18a1 | inactive: -0.372
GGUGCUAAGCAUGAAGCCUTT against Stk16 | inactive: -1.01
GCUCAUCGUACCAUUUUCUTT against Trim12c | inactive: 0.699

Sequence | z-score
CCUGGGACCUAUAACUCCATT against Lexm | inactive: -0.575
GGUCAUCUGAUAAAUGAGUTT against Klhl30 | inactive: -0.206
GGAAGCAGUAAGAAAUCAGTT against Clpx | inactive: 1.42
GGACAAUGAUUACGACCACTT against Cacng4 | inactive: -0.917
CGACCGUUGUUAUGGGCAATT against Pla2g5 | inactive: 1.93
GGAGUUUGAGACACUCUGCTT against Atg4d | inactive: 0.596
GCUGGUACUGACGAAAUGGTT against Adamts3 | inactive: -0.144
GCCCAAUAACCAAAUGCCATT against Tox | inactive: -1.1
GGGACAAGACUGUAUCUUUTT against Fgf4 | inactive: 0.278
GCACCUCUGACAAGGUUCUTT against Plin1 | active: 2.65
GGAGUGAAGGGUCAUCCAGTT against Col9a2 | active: 5.07
CCGUAAACCUAAAUUAGGATT against Dstyk | inactive: -0.371
CCUGUAUGGAGUAAUGGAATT against Eif4ebp3 | inactive: 0.13
GGUAUGGAUCAAGGUUCUUTT against Gja6 | active: 3.21
GCUGGAAAGCUCACAGUUATT against Faah | inactive: 1.09
GGAGAUUCAGAUCAAAGAGTT against Scyl1 | inactive: -0.182
GCGCGUGUGAAAUAAACAUTT against Armh3 | inactive: -1.94
GCCUAUGCCAAUUUGUGCGTT against Paqr6 | inactive: 0.295
GGAAAGUAAAGUUUUCUCCTT against Vps26b | inactive: 1.01
GCUCUUGGGUUACUGGGUUTT against Olfr784 | inactive: 0.477
GGACUUGUCAUUAUUGUCCTT against Olfr397 | inactive: 0.0421
GGACAGUAUGAAUUUGAAUTT against Lcp1 | active: 2.44
CGCAGGUGAGAGCAAUGUUTT against Lrrn4cl | inactive: -1.35

Sequence | z-score
CCCAAUAGGAGCUCAUCAUTT against Nr4a3 | inactive: -1.16
GGUCGUUAUCACUCUCUAUTT against Pkd1l3 | active: 3.34
GGAUGCUCAAGGAAAACAGTT against Lipk | inactive: -1.14
GCAUGAUCGUGUUUGUUUATT against Srpk2 | inactive: 0.722
GGGCUCAUUGCUAAAACACTT against Sgcg | inactive: -0.221
GGAGAUUGACACCAACACCTT against Clic5 | inactive: -1.7
GGUGAUGCAAGAAGAAAUUTT against Aldh3a2 | inactive: 0.169
CCCACAAGUUUCAUCUGACTT against Aknaos | inactive: -0.164
GGAGAAUGCACAGUUCACUTT against Krt16 | inactive: 1.7
GGAUCAACAAGGAACUGGCTT against Ap2a1 | inactive: -1.25
GGAACCCUUGGUUUUUUUUTT against Oas1a | inactive: 0.387
GGAAAAGAUCUCGUGGUUGTT against Slc25a17 | inactive: -0.959
GGGACAGACCUUGCCUUUGTT against Sac3d1 | inactive: 0.209
GGAUGAAAAGAUUGAACUCTT against Gart | active: 3.22
GGAAACAUGGCCAUGUUUUTT against Cyp7a1 | inactive: -0.115
GCACAACACGGCUAAACCUTT against Dph7 | inactive: -0.911
CCUGUUGUAUUGUUUAGCGTT against Ago2 | inactive: -0.402
CCAGCAAAAUCACUUAAUATT against Emb | inactive: -0.648
GGAAGAAGGCAUUGUGAAGTT against Rps6ka2 | inactive: 1.42
CCUCCACCGAAAUAAUUAATT against Dnajb3 | inactive: 0.655
GCCUUUGUGAGGAUUAAACTT against Fam83f | inactive: -0.000611
CCAUGCGGCUUGUAAUAUGTT against AU022252 | inactive: 0.279
GGAUACGUUACUCCAGUCATT against Ctsk | inactive: -0.647

An excerpt of these results, in markdown.

| Sequence | z-score |
| --- | --- |
| CCCAAUAGGAGCUCAUCAUTT against Nr4a3 | inactive: -1.16 |
| GGAUGCUCAAGGAAAACAGTT against Lipk | inactive: -1.14 |
| GCAUGAUCGUGUUUGUUUATT against Srpk2 | inactive: 0.722 |
| GGGCUCAUUGCUAAAACACTT against Sgcg | inactive: -0.221 |
| GGAGAUUGACACCAACACCTT against Clic5 | inactive: -1.7 |
| GGUGAUGCAAGAAGAAAUUTT against Aldh3a2 | inactive: 0.169 |
| GGAGAAUGCACAGUUCACUTT against Krt16 | inactive: 1.7 |
| GGAACCCUUGGUUUUUUUUTT against Oas1a | inactive: 0.387 |
| GGGACAGACCUUGCCUUUGTT against Sac3d1 | inactive: 0.209 |
| GGAUGAAAAGAUUGAACUCTT against Gart | active: 3.22 |
| GGAAACAUGGCCAUGUUUUTT against Cyp7a1 | inactive: -0.115 |
| GGAAGAAGGCAUUGUGAAGTT against Rps6ka2 | inactive: 1.42 |
| CCUCCACCGAAAUAAUUAATT against Dnajb3 | inactive: 0.655 |
| GCCUUUGUGAGGAUUAAACTT against Fam83f | inactive: -0.000611 |
| CCAUGCGGCUUGUAAUAUGTT against AU022252 | inactive: 0.279 |
| GGAUACGUUACUCCAGUCATT against Ctsk | inactive: -0.647 |
